# In patent publication US6936631B2, “Bicyclic imidazo-5-yl-amine derivatives” (Gruenenthal GmbH, priority 1999, dated 2005):
# At least one structure is not confirmed: it was looked up by name or label, or the drawing left a doubt.
# Test system: α2-subtype of the human α-adrenergic receptor
# Experiment: SPA assay for affinity for the α2-subtype of the human α-adrenergic receptor (high throughput screening)
# Assay type: binding
# Details: at a concentration of 10 μM
# Method: The compounds according to the invention are ligands of the pain-relevant α2-subtype of the human α-adrenergic receptor. The affinity for the α2-subtype of the human α-adrenergic receptor was determined by means of a conventional SPA assay for high throughput screening, such as is described in John P. Devlin, High Throughput Screening, Marcel Dekker Inc. 1997, page 307 to 316. This literature is incorporated herein by reference and thus forms part of the disclosure. The following affinities were determined at a concentration of 10 μM: […]
row,Structure (SMILES),"alpha2 affinity, 10 μM [%]"
1,"Cc1nc2scc(CC(=O)O)n2c1NC(C)(C)C [Example 39, (5-tert-Butylamino-6-methyl-imidazo[2,1-b]thiazol-3-yl)-acetic acid]",35
2,"CC(=O)N(c1c(-c2ccccc2)nc2sccn12)C(C)(C)C [Example 40, N-tert-Butyl-N-(6-phenyl-imidazo[2,1-b]thiazol-5-yl)-acetamide]",77
3,"CC(=O)N(c1c(-c2ccccc2C)nc2sccn12)C(C)(C)C [Example 41, N-tert-Butyl-N-(6-o-tolyl-imidazo[2,1-b]thiazol-5-yl)-acetamide]",50
